Laboratory results: PubChem BioAssay AID686938 (Drosophila RNAi Screening Center, 2013)
The deposit covers about 23,000 reagents; shown is an unselected part of those with a known target gene and a result. Over the whole deposit, 75 (0.33%) are marked active. 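Raw plate signals without normalisation; calls rest on plate z-scores that were not deposited; ratio present for only 364 wells.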 Reagents against one gene are numbered here. A plus sign joins genes that one reagent is predicted to hit. Not given: the dose of the treatment.

Aim: 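Looking for CRAC channel components and the factors controlling them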 (primary screen)
Cell system: Drosophila S2R+ cells
Reagent: long dsRNA against Drosophila genes, about 0.25 µg dsRNA per well, roughly 10,000 cells
Duration: 5 days of knock-down before the calcium assay
Challenge: thapsigargin (SERCA pump blocker) to empty calcium stores; entry signal taken 4 min after adding it
Measured: 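Duplicate raw fluo-4 intensities per well from a plate reader, at rest and four minutes after thapsigargin emptied calcium stores; entry-to-rest ratio filled for only some wells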
Scale: calcium entry signal: higher = stronger calcium signal after store depletion; entry to resting ratio: higher = more calcium entry relative to resting level; resting calcium signal: higher = higher resting calcium signal
Active means: 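Hit if the duplicate-averaged plate z-score for entry over resting signal is under −3; wells with weak total dye signal (Fmax z < −2) or more than 5 off-targets removed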
Calls: active = strongly reduced calcium entry; inactive = no strong reduction

predicted target | dsRNA no. | calcium entry signal, replicate 1 (fluorescence units) | calcium entry signal, replicate 2 (fluorescence units) | entry to resting ratio | resting calcium signal, replicate 1 (fluorescence units) | resting calcium signal, replicate 2 (fluorescence units) | outcome
mas (masquerade) | 1 | 4.52e7 | 3.92e7 | – | 2.99e7 | 1.78e7 | inactive
Taz (Tafazzin) | 1 | 3.46e7 | 4.22e7 | – | 1.73e7 | 1.89e7 | inactive
Taz (Tafazzin) | 2 | 4.27e7 | 3.25e7 | – | 2.30e7 | 1.57e7 | inactive
Cpr47Eg (Cuticular protein 47Eg) | 1 | 2.64e7 | 3.99e7 | – | 1.31e7 | 1.78e7 | inactive
CG8460 | 1 | 5.03e7 | – | – | 3.08e7 | – | inactive
Shaw (Shaker cognate w) | 1 | 4.20e7 | 3.51e7 | – | 2.08e7 | 1.66e7 | inactive
Shaw (Shaker cognate w) | 2 | 4.20e7 | 5.85e7 | – | 2.01e7 | 2.43e7 | inactive
Shaw (Shaker cognate w) | 3 | 4.13e7 | 3.30e7 | – | 2.15e7 | 1.49e7 | inactive
lectin-28C | 1 | 2.48e7 | 3.47e7 | – | 1.23e7 | 1.58e7 | inactive
RpL23 (Ribosomal protein L23) | 1 | 1.59e7 | 1.73e7 | – | 1.19e7 | 1.12e7 | inactive
l(1)G0289 (lethal (1) G0289) | 1 | 4.07e7 | 3.91e7 | – | 1.92e7 | 1.85e7 | inactive
CG33627 | 1 | 4.12e7 | 3.53e7 | – | 1.78e7 | 1.40e7 | inactive
CG6790 | 1 | 2.13e7 | 3.13e7 | – | 9.51e6 | 1.36e7 | inactive
Coq2 (Coenzyme Q biosynthesis protein 2) | 1 | 3.12e7 | 2.67e7 | – | 1.48e7 | 1.29e7 | inactive
Coq2 (Coenzyme Q biosynthesis protein 2) | 2 | 2.81e7 | 2.94e7 | – | 1.53e7 | 1.43e7 | inactive
Nup50 (Nucleoporin 50kD) | 1 | 3.71e7 | 3.61e7 | – | 1.61e7 | 1.52e7 | inactive
mor (moira) | 1 | 3.86e7 | 6.20e7 | – | 2.36e7 | 6.71e7 | inactive
Tcs3 (Threonyl-carbamoyl synthesis 3) | 1 | 4.34e7 | 5.90e7 | – | 2.23e7 | 3.04e7 | inactive
cm + Inx7 | 1 | 3.98e7 | 4.28e7 | – | 1.95e7 | 1.98e7 | inactive
ewg (erect wing) | 1 | 3.91e7 | 3.09e7 | 2.1 | 1.82e7 | 1.49e7 | inactive
sigmar (salivary glands marred) | 1 | 3.90e7 | – | – | 2.06e7 | – | inactive
CG3149 | 1 | 2.98e7 | 3.45e7 | – | 1.50e7 | 1.57e7 | inactive
CG16903 | 1 | 3.21e7 | 3.62e7 | 1.7 | 1.89e7 | 1.84e7 | inactive
CG5500 | 1 | 3.43e7 | 4.88e7 | – | 1.81e7 | 2.10e7 | inactive
